Source: patent publication US20190350909A1, “COMPOSITIONS AND METHODS FOR MODULATING HAIR GROWTH” (priority 2018, published 2019)
Entries after “also recorded” stand apart in the source; their conditions may differ. For some assays here: At least one structure is not confirmed: it was looked up by name or label, or the drawing left a doubt. Some entries share one result that the patent states for a list of compounds.

Legend:
Type in all cases: in vivo, C57BL/6 mice
hair cycle = test: Hair cycle analysis after topical treatment of shaved dorsal skin of telogen-stage mice; settings: mice shaved at D45, treated topically every 48 hours; vehicle did not start until at least D76 (FIG. 2A)
Experimental: (§1) Wildtype male and female 49-day old C57BL/6 mice were obtained from Jackson Laboratories for all topical experiments. All animals were maintained in UCLA's Division of Laboratory Medicine (DLAM)-approved pathogen-free barrier facilities and procedures were performed using protocols that adhere to the standards of the UCLA Animal Research Committee (ARC), Office of Animal Research Oversight (OARO), and the National Institutes of Health (NIH).
(§2) All drugs were suspended in DMSO and aliquoted at approximately 5 times IC50 or EC50 for the purposes of penetrating the epidermal barrier upon in vivo application. Aliquots were then mixed with the appropriate volume of Premium Lecithin Organogel (PLO) Base (Transderma Pharmaceuticals Inc.) and topically applied onto the shaved dorsal skin of 49 day old telogen-stage mice. Three experiment timepoints were used: acute treatment (two doses across 48 hours), 1 week treatment (three doses across five days) or long-term studies (one dose three times a week for approximately 1.5 weeks). […]
Hair cycles were assessed macroscopically by observational and photographic documentation. […] Hair cycle stages were also evaluated by follicular morphology into respective telogen, telogen-to-anagen transition, or anagen categories. […]

Creb (pCreb) = test: Immunohistochemistry of treated skin for Creb signaling, HFSC and proliferation markers
Experimental: as §1
as §2, with “weeks). Full-thickness dorsal skin was collected for histological analysis, cryosectioning, RNA isolation, and/or for epidermal stem cell isolation according to well-established FACS protocol.” for “weeks).”

[1] = test system: lactate dehydrogenase (Ldh); test: Ldh activity assay (in situ and plate reader) on treated skin/epidermis
Experimental: as §1
All drugs were suspended in DMSO and aliquoted at approximately 5 times IC50 or EC50 for the purposes of penetrating the epidermal barrier upon in vivo application. Aliquots were then mixed with the appropriate volume of Premium Lecithin Organogel (PLO) Base (Transderma Pharmaceuticals Inc.) and topically applied onto the shaved dorsal skin of 49 day old telogen-stage mice. Three experiment timepoints were used: acute treatment (two doses across 48 hours), 1 week treatment (three doses across five days) or long-term studies (one dose three times a week for approximately 1.5 weeks). Full-thickness dorsal skin was collected for histological analysis, cryosectioning, RNA isolation, and/or for epidermal stem cell isolation according to well-established FACS protocol.

Ldha transcript = test: RT-PCR for Ldha transcript in treated epidermis; settings: epidermis treated for 1 week (FIG. 4D)
Ldha protein, pCreb = test: Western blot of epidermis from treated animals for pCreb and Ldha protein; settings: epidermis from treated animals (FIG. 4C)
Experimental: Wildtype male and female 49-day old C57BL/6 mice were obtained from Jackson Laboratories for all topical experiments. All animals were maintained in UCLA's Division of Laboratory Medicine (DLAM)-approved pathogen-free barrier facilities and procedures were performed using protocols that adhere to the standards of the UCLA Animal Research Committee (ARC), Office of Animal Research Oversight (OARO), and the National Institutes of Health (NIH). […] All drugs were suspended in DMSO and aliquoted at approximately 5 times IC50 or EC50 for the purposes of penetrating the epidermal barrier upon in vivo application. […] Three experiment timepoints were used: acute treatment (two doses across 48 hours), 1 week treatment (three doses across five days) or long-term studies (one dose three times a week for approximately 1.5 weeks). Full-thickness dorsal skin was collected for histological analysis, cryosectioning, RNA isolation, and/or for epidermal stem cell isolation according to well-established FACS protocol.

| Structure (SMILES) | acceleration of start of pigmentation and hair growth relative to vehicle (hair cycle) | activation of Creb (pCreb) by immunohistochemistry (Creb (pCreb); acute 48 hours topical treatment, HFSCs and IFE (FIG. 3B)) | canonical Creb target expression (cFos staining) (Creb (pCreb); acute treatment (FIG. 3B)) | Ldh activity level, plate reader, compared to the control group ([1]; protein lysate from fresh skin treated 1 week (FIG. 4F)) | lactate dehydrogenase / glycolytic activity in situ ([1]; topical treatment 1 week, fresh skin sections (FIG. 4E)) | Ldha transcript (RT-PCR) (Ldha transcript) | Ldha protein production (western blot) (Ldha protein, pCreb) |
| --- | --- | --- | --- | --- | --- | --- | --- |
| COc1ccccc1NC(=O)CSc1nc2c(cc1C#N)=CC1OCCOC1C=2 (centres unmarked) [#44] | up to 14 days | – | – | – | – | – | – |
| COc1ccc(NC(=O)CSc2nc3c(cc2C#N)=CC2OCCOC2C=3)c(OC)c1 (centres unmarked) [#61] | up to 14 days | – | – | – | – | – | – |
| C=C[C@@]1(C)CC(=O)[C@]2(O)[C@@]3(C)[C@@H](O)CCC(C)(C)[C@@H]3[C@H](O)[C@H](OC(C)=O)[C@@]2(C)O1 [forskolin] | – | activation of Creb (pCreb) in HFSCs (and IFE); also recorded: activation of pCreb and Creb targets | induced levels of transcript for canonical Creb targets | higher | stimulated glycolytic activity in HFSCs and in the IFE | high levels of expression; also recorded: induction | increase in protein production |
